# Source: the supplement of paper PMC8728848
# This is one part of the list.
# B1: SJCP1531 (Schistosoma japonicum) (protein)
# chain: MFKVRIINLVNISTVLLLINLLQTKSQVNVEQLVTVLEVNIKAQLKNKTTEVLVEWNPLYQDNSMPEYRKLLDETCKLFLPFVNEKVPPSTYGGECTNANFSEAPQDGSYSRVNAELRLIYKYSDNPQIQTDRLQDDLNDREEFITSESSFVAYNPKFTVKIEKLFIPISESQTTPPPTTAKNDASKKDDDDNGGEDSKAPIDTFAMTASGNKGKKDDDDNGGEDSKAPIDTFAMTASGSKDERSTWTIIGIITLVVLIFVVIGGGITVFVKRC
# Key:
# Experiment in all cases: glycan array binding signal (z-score within array); higher = stronger binding
# Conditions in all cases: glycan notation: IUPAC condensed, linker removed
# GalNAc(b1-3)Gal = target: GalNAc(b1-3)Gal
# Procedure, shortened: (§1)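 The Consortium for Functional Glycomics database supplied 3228 glycan arrays, of which those lacking an available protein sequence were dropped. The binding signal, a within-array Z-score, was averaged across arrays of the same protein sequence and across linkers. Negative scores can be read as non-binding.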
# [1] = target: GalNAc(b1-3)Gal(a1-4)Gal(b1-4)GlcNAc
# Procedure, shortened: as §1
# [2] = target: GalNAc(b1-3)Gal(a1-4)Gal(b1-4)GlcNAc(b1-3)Gal(b1-4)Glc
# Procedure, shortened: as §1
# [3] = target: GalNAc(b1-3)Gal(a1-6)Gal(b1-4)Glc
# Procedure, shortened: as §1
# GalNAc(b1-3)GalNAc = target: GalNAc(b1-3)GalNAc
# Procedure, shortened: as §1
# GalNAc(b1-3)GlcNAc = target: GalNAc(b1-3)GlcNAc
# Procedure, shortened: as §1
# GalNAc(b1-4)Gal(b1-4)Glc = target: GalNAc(b1-4)Gal(b1-4)Glc
# Procedure, shortened: as §1
# GalNAc(b1-4)GlcNAc = target: GalNAc(b1-4)GlcNAc
# Procedure, shortened: as §1
# [4] = target: GalNAc(b1-4)GlcNAc(b1-2)Man
# Procedure, shortened: as §1
# [5] = target: GalNAc(b1-4)GlcNAc(b1-2)Man(a1-3)[GalNAc(b1-4)GlcNAc(b1-2)Man(a1-6)]Man(b1-4)GlcNAc(b1-4)GlcNAc
# Procedure, shortened: as §1
# [6] = target: GalNAc(b1-4)GlcNAc(b1-3)GalNAc(b1-4)GlcNAc
# Procedure, shortened: as §1
# GalNAc(b1-4)GlcNAc6S = target: GalNAc(b1-4)GlcNAc6S
# Procedure, shortened: as §1
# GalNAc(b1-6)GalNAc = target: GalNAc(b1-6)GalNAc
# Procedure, shortened: as §1
# GalNAc3S(b1-4)GlcNAc = target: GalNAc3S(b1-4)GlcNAc
# Procedure, shortened: as §1
# GalNAc3S(b1-4)GlcNAc3S = target: GalNAc3S(b1-4)GlcNAc3S
# Procedure, shortened: as §1
# [7] = target: GalNAc3S(b1-4)[Fuc(a1-3)]GlcNAc
# Procedure, shortened: as §1
# GalNAc4S6S(b1-4)GlcNAc = target: GalNAc4S6S(b1-4)GlcNAc
# Procedure, shortened: as §1
# GalNAc6S(b1-4)GlcNAc = target: GalNAc6S(b1-4)GlcNAc
# Procedure, shortened: as §1
# Glc(a1-4)Glc = target: Glc(a1-4)Glc
# Procedure, shortened: as §1
# [8] = target: Glc(a1-4)Glc(a1-4)Glc(a1-4)Glc
# Procedure, shortened: as §1
# Glc(a1-6)Glc(a1-6)Glc = target: Glc(a1-6)Glc(a1-6)Glc
# Procedure, shortened: as §1
# [9] = target: Glc(a1-6)Glc(a1-6)Glc(a1-6)Glc
# Procedure, shortened: as §1
# Glc(b1-4)Glc = target: Glc(b1-4)Glc
# Procedure, shortened: as §1
# Glc(b1-6)Glc = target: Glc(b1-6)Glc
# Procedure, shortened: as §1
# GlcA(b1-3)Gal = target: GlcA(b1-3)Gal
# Procedure, shortened: as §1
# GlcA(b1-3)GlcNAc = target: GlcA(b1-3)GlcNAc
# Procedure, shortened: as §1
# GlcA(b1-6)Gal = target: GlcA(b1-6)Gal
# Procedure, shortened: as §1
# [10] = target: GlcA3S(b1-3)Gal(b1-4)GlcNAc(b1-2)Man
# Procedure, shortened: as §1
# [11] = target: GlcA3S(b1-3)Gal(b1-4)GlcNAc(b1-3)Gal(b1-4)Glc
# Procedure, shortened: as §1
# [12] = target: GlcNAc(a1-3)Gal(b1-4)GlcNAc
# Procedure, shortened: as §1
# [13] = target: GlcNAc(a1-4)Gal(b1-3)GlcNAc
# Procedure, shortened: as §1
# [14] = target: GlcNAc(a1-4)Gal(b1-4)GalNAc
# Procedure, shortened: as §1
# [15] = target: GlcNAc(a1-4)Gal(b1-4)GlcNAc
# Procedure, shortened: as §1
# [16] = target: GlcNAc(a1-4)Gal(b1-4)GlcNAc(b1-3)Gal(b1-4)Glc
# Procedure, shortened: as §1
# [17] = target: GlcNAc(a1-4)Gal(b1-4)GlcNAc(b1-3)Gal(b1-4)GlcNAc
# Procedure, shortened: as §1
# [18] = target: GlcNAc(a1-4)Gal(b1-4)GlcNAc(b1-3)Gal(b1-4)GlcNAc(b1-3)Gal(b1-4)GlcNAc
# Procedure, shortened: as §1
# [19] = target: GlcNAc(a1-4)Gal(b1-4)GlcNAc(b1-3)Gal(b1-4)[Fuc(a1-3)]GlcNAc(b1-3)Gal(b1-4)[Fuc(a1-3)]GlcNAc
# Procedure, shortened: as §1
# [20] = target: GlcNAc(a1-6)Gal(b1-4)GlcNAc
# Procedure, shortened: as §1
binder,measurement,setting,value
B1,glycan array binding signal (z-score),GalNAc(b1-3)Gal,0.65
same,glycan array binding signal (z-score),[1],-0.285
same,glycan array binding signal (z-score),[2],0.838
same,glycan array binding signal (z-score),[3],-1.1
same,glycan array binding signal (z-score),GalNAc(b1-3)GalNAc,0.218
same,glycan array binding signal (z-score),GalNAc(b1-3)GlcNAc,-1.66
same,glycan array binding signal (z-score),GalNAc(b1-4)Gal(b1-4)Glc,-0.062
same,glycan array binding signal (z-score),GalNAc(b1-4)GlcNAc,0.689
same,glycan array binding signal (z-score),[4],-1.15
same,glycan array binding signal (z-score),[5],-0.787
same,glycan array binding signal (z-score),[6],-0.416
same,glycan array binding signal (z-score),GalNAc(b1-4)GlcNAc6S,-0.226
same,glycan array binding signal (z-score),GalNAc(b1-6)GalNAc,2.81
same,glycan array binding signal (z-score),GalNAc3S(b1-4)GlcNAc,-0.858
same,glycan array binding signal (z-score),GalNAc3S(b1-4)GlcNAc3S,-0.422
same,glycan array binding signal (z-score),[7],-1.15
same,glycan array binding signal (z-score),GalNAc4S6S(b1-4)GlcNAc,-1.04
same,glycan array binding signal (z-score),GalNAc6S(b1-4)GlcNAc,-1.74
same,glycan array binding signal (z-score),Glc(a1-4)Glc,-0.823
same,glycan array binding signal (z-score),[8],1.38
same,glycan array binding signal (z-score),Glc(a1-6)Glc(a1-6)Glc,-1.03
same,glycan array binding signal (z-score),[9],-0.401
same,glycan array binding signal (z-score),Glc(b1-4)Glc,-1.55
same,glycan array binding signal (z-score),Glc(b1-6)Glc,-0.797
same,glycan array binding signal (z-score),GlcA(b1-3)Gal,0.452
same,glycan array binding signal (z-score),GlcA(b1-3)GlcNAc,-0.723
same,glycan array binding signal (z-score),GlcA(b1-6)Gal,0.632
same,glycan array binding signal (z-score),[10],1.07
same,glycan array binding signal (z-score),[11],-1.52
same,glycan array binding signal (z-score),[12],0.476
same,glycan array binding signal (z-score),[13],-0.95
same,glycan array binding signal (z-score),[14],0.941
same,glycan array binding signal (z-score),[15],-1.98
same,glycan array binding signal (z-score),[16],-1.45
same,glycan array binding signal (z-score),[17],-0.361
same,glycan array binding signal (z-score),[18],-0.281
same,glycan array binding signal (z-score),[19],2.8
same,glycan array binding signal (z-score),[20],0.017

# As a working copy, part of the list above.
binder,measurement,setting,value
B1,glycan array binding signal (z-score),[5],-0.787
same,glycan array binding signal (z-score),[6],-0.416
